The experiment concerns the target recombinant Oryza australiensis Rubisco activase (RCA), beta (short) isoform (Oryza australiensis) (UniProt P93431). In words: native gel, concentration-dependent self-oligomerisation.

Amino acid sequences for entries named in this document (tags omitted). A change or cut given only in a name is not applied to a line headed by its entry.
UniProt P93431: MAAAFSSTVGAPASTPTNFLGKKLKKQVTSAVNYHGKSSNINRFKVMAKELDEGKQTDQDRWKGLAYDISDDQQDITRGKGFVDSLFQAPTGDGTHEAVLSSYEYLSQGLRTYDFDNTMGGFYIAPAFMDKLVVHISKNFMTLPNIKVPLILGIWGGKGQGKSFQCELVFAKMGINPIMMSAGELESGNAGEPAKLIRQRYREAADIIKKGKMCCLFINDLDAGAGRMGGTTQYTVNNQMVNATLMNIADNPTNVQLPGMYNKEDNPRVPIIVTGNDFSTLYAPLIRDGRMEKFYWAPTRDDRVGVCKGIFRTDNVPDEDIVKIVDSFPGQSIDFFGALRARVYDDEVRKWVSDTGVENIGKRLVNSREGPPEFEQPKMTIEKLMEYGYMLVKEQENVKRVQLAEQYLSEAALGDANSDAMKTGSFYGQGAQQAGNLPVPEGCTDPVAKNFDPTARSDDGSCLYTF

No constants are given. Whether binding was seen depends on the method and setting. Some binding calls cover weakened binding; strength is not graded here.

B1: recombinant Oryza australiensis Rubisco activase (RCA), beta (short) isoform (enzyme)
chain: MAKELDEDKQTDQDKWKGLAYDISDDQQDITRGKGLVDSLFQAPMGDGTHEAVLSSYEYLSQGLKMLDNTMGGFYIAPAFMDKLVVHISKNFMALPNIKVPLILGIWGGKGQGKSFQCELVFSKMGINPIMMSAGELESGNAGEPAKLIRQRYREAADIIKKGKMCCLFINDLDAGAGRMGGTTQYTVNNQMVNATLMNIADNPTNVQLPGMYNKEDNPRVPIIVTGNDFSTLYAPLIRDGRMEKFYWAPTRDDRVGVCKGIFRTDNVPDEDIVKIVDSFPGQSIDFFGALRARVYDDEVRKWVSDTGVENIGKKLVNSREGPPEFEQPKMTIDKLMEYGHMLVREQENVKRVQLADKYLSEAALGDANSDAMKTGSFYGAAPSS
Consider B1, for which the binding result is given as “binds”.

For the origin of these results see patent US20180037904A1.
